Results on 1 substance are retold here after PMC12302539.

The chains behind the UniProt entries cited, without tags or fusion partners.
UniProt Q99814: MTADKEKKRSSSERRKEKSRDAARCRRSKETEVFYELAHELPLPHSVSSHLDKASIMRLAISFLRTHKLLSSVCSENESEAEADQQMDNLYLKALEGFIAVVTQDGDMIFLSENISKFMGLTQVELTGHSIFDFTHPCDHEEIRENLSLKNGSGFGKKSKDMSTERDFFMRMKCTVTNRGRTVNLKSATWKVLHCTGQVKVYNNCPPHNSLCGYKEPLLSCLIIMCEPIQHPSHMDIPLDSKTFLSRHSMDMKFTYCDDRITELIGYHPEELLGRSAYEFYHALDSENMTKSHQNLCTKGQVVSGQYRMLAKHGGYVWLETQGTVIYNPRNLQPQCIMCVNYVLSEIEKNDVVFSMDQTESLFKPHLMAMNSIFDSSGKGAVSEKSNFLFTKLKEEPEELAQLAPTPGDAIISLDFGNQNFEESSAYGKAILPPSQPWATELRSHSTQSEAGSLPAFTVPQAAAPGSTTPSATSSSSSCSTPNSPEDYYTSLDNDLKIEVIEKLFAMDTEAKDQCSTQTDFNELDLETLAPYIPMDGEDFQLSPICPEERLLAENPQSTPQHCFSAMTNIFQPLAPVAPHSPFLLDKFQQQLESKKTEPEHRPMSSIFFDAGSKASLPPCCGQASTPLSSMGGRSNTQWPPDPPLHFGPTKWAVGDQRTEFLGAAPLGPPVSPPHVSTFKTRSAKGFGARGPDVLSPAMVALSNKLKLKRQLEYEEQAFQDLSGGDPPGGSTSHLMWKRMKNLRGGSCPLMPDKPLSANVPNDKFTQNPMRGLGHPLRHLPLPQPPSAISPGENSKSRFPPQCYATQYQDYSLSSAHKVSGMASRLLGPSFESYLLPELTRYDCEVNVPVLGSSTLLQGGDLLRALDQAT

The test concerns the target T1, zinc finger protein 692 (ZNF692), Flag-tagged (UniProt Q9BU19).
T1 sequence: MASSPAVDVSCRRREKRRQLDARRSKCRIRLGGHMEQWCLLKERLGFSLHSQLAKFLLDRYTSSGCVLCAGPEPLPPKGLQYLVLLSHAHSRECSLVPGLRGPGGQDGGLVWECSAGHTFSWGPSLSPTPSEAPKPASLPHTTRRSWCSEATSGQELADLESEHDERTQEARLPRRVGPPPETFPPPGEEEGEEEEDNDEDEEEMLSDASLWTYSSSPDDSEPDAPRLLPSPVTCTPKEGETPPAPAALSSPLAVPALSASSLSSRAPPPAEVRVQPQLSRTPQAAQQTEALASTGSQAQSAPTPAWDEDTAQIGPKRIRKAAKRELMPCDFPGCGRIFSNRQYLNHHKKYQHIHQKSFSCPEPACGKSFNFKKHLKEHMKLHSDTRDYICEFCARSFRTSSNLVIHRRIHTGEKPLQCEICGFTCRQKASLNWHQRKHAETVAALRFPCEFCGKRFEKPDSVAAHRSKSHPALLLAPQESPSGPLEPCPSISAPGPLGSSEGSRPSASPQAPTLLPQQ
Briefly: co-IP; anti-Flag (DDDDK-Tag) magnetic beads on lysate of 293T cells stably expressing Flag-ZNF692; high salt lysis buffer (20 mM HEPES pH 7.4, 350 mM NaCl, 1% NP-40, 0.5% Triton X-100), 4 °C overnight, three washes with lysis buffer; western blotting.

No constants are given. Whether binding was seen depends on the method and setting. Binding seen in cells or lysates may run through a third protein. Some entries that bind do so weakly or less than the wild type. Tags and fused reporters may be left off the sequences shown.

HIF-2α (from UniProt Q99814 1-870): the binding result is “binds”.
